Assay results as given in the supplement of paper PMC10735217.
Structures can show the parent of a compound that is named as a salt. Some of the results follow. Single values are uncertain here, since repeats match poorly.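 The human kidney-derived cells carry a stably integrated construct of eight TEAD-binding elements driving luciferase, read by luminescence in a drug-repurposing library screen. A compound counts as a hit when its signal is more than five robust Z scores above the plate mean.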

System: HEK293A TEAD-LUC reporter
Test: TEAD-luciferase reporter activity (YAP activation), robust Z score vs plate; higher = stronger YAP/TEAD activation
Conditions: 24 h

SMILES	TEAD-luciferase reporter activity (compound concentration: 200 nM)	TEAD-luciferase reporter activity (compound concentration: 2 uM)	TEAD-luciferase reporter activity (compound concentration: 10 uM)
O=C(c1cccnc1)N1CCN(c2cccc(C(F)(F)F)c2)CC1	inactive: -1.4	inactive: -1.97	inactive: -0.283
CC1=C(C(=O)OC(C)C)C(c2cccc([N+](=O)[O-])c2)C(C(=O)OC2CN(C(c3ccccc3)c3ccccc3)C2)=C(N)N1 (centres undefined) [azelnidipine]	inactive: -0.774	inactive: -0.0369	inactive: 0.128
C=CCOC(Cn1ccnc1)c1ccc(Cl)cc1Cl (centres undefined) [enilconazole]	inactive: -1.8	inactive: -0.628	inactive: 1.27
CCCNC[C@]1(O)[C@H](C)O[C@@H](O[C@H]2[C@H](C)[C@@H](O[C@@H]3O[C@H](C)C[C@H](N(C)C)[C@H]3O)[C@](C)(O)C[C@@H](C)CN[C@H](C)[C@@H](O)[C@](C)(O)[C@@H](CC)OC(=O)[C@@H]2C)C[C@@]1(C)OC [Tulathromycin A]	inactive: -1.89	inactive: 0.251	inactive: -0.119
Cc1cc(C)nc(NS(=O)(=O)c2ccc(N)cc2)n1	inactive: -1.65	inactive: -1.29	inactive: -2.35
COC(=O)NC1CCN(c2nc3ncccc3o2)CC1	inactive: -0.647	–	inactive: -0.777
O=C(CSc1nnc(Br)n1-c1ccc(C2CC2)c2ccccc12)Nc1ccc(C(=O)O)cc1Cl	inactive: -1.86	inactive: -2.68	inactive: -0.912
CCCCN(CCCC)CCCOc1ccc(C(=O)c2c(-c3ccccc3)c(Br)c3ccccn23)cc1Cl [rilozarone]	inactive: -0.14	inactive: -0.858	inactive: 0.865
CC(C)OC(=O)COc1cccc(CN(Cc2ccc(-n3cccn3)cc2)S(=O)(=O)c2cccnc2)c1 [Taprenepag isopropyl]	inactive: -0.946	inactive: -0.604	inactive: 0.546
CN1CCC(C(=O)N2CCC3(CC2)CC(NC(=O)N(C)C)c2ccccc2O3)CC1 (centres undefined)	inactive: -1.96	–	inactive: -0.948
CC(=O)C(=Cc1cc(O)c(O)c([N+](=O)[O-])c1)C(C)=O	inactive: -0.644	inactive: -0.777	inactive: -0.539
CC12CCC(C[N+](C)(CCC[N+](C)(C)C)C1)C2(C)C (centres undefined)	inactive: -1.95	inactive: -0.898	inactive: 0.54
CCC[C@H](N[C@@H](C)C(=O)N1[C@H](C(=O)O)C[C@@H]2CCCC[C@@H]21)C(=O)OCC [perindopril]	–	inactive: -0.57	–
CCC[C@H](N[C@@H](C)C(=O)N1[C@H](C(=O)O)C[C@@H]2CCCC[C@@H]21)C(=O)OCC	inactive: -1.72	–	inactive: -0.309
CC(=O)NC1CC2(CCN(C(=O)Cc3ccc(O)cc3)CC2)c2ccccc21 (centres undefined)	inactive: -2.04	–	inactive: -0.155
C=CC1=C(C)c2cc3[nH]c(cc4nc(cc5[nH]c(cc1n2)c(C)c5C=C)C(C)=C4CCC(=O)O)c(CCC(=O)O)c3C	inactive: -0.991	inactive: -0.899	inactive: -1.34

2 entries drawn at random from the list so far:
SMILES	TEAD-luciferase reporter activity (compound concentration: 200 nM)	TEAD-luciferase reporter activity (compound concentration: 2 uM)	TEAD-luciferase reporter activity (compound concentration: 10 uM)
CC(C)OC(=O)COc1cccc(CN(Cc2ccc(-n3cccn3)cc2)S(=O)(=O)c2cccnc2)c1 [Taprenepag isopropyl]	inactive: -0.946	inactive: -0.604	inactive: 0.546
CCC[C@H](N[C@@H](C)C(=O)N1[C@H](C(=O)O)C[C@@H]2CCCC[C@@H]21)C(=O)OCC	inactive: -1.72	–	inactive: -0.309

(listing goes on)

SMILES	TEAD-luciferase reporter activity (compound concentration: 200 nM)	TEAD-luciferase reporter activity (compound concentration: 2 uM)	TEAD-luciferase reporter activity (compound concentration: 10 uM)
Cc1nsc(NC(=O)c2ccccc2)c1C(=O)Nc1ccc(Cl)cc1 [denotivir]	inactive: -1.07	inactive: -0.795	inactive: 1.34
CCOC(=O)Cc1nc(-c2ccc(Cl)cc2)oc1-c1ccco1	inactive: 0.733	inactive: -0.965	inactive: 1
NC(=O)C1(NC(=O)[C@H](Cc2ccccc2)NC(=O)[C@@H](Cc2c[nH]c3ccccc23)NC(=O)[C@@H](Cc2csc3ccccc23)NC(=O)C2CCNCC2)CCNCC1 [Relamorelin]	inactive: -0.713	inactive: -1.2	inactive: 1.37
CC1Nc2ccn3ncc(c3n2)C(=O)NC[C@H](C)Oc2ccc(F)cc21 (some centres undefined)	inactive: -0.558	–	inactive: -1.78
COC(=O)[C@@H](c1ccccc1)N1CCC(c2ccc(NC(=O)c3ccccc3-c3ccc(C(F)(F)F)cc3)cc2)CC1 [Usistapide]	inactive: -1.03	inactive: -0.379	inactive: 1.92
Cc1nc2c(cc1C(=O)N=C(N)N)CCCCC2COS(=O)(=O)O (centres undefined)	inactive: 0.641	inactive: 0.153	inactive: -2.01
C[Si](C)(C)c1cc(C(=O)Nc2ccc(C(=O)O)cc2)cc([Si](C)(C)C)c1	inactive: -1.19	inactive: 1.21	inactive: -0.393
C=C(NC(=O)C(=C)NC(=O)c1csc(C2=NC3c4csc(n4)C4NC(=O)c5csc(n5)C(C(C)(O)C(C)O)NC(=O)C5CSC(=N5)/C(=C\C)NC(=O)C(C(C)O)NC(=O)c5csc(n5)C3(CC2)NC(=O)C(C)NC(=O)C(=C)NC(=O)C(C)NC(=O)C(C(C)CC)NC2C=Cc3c(C(C)O)cc(nc3C2O)C(=O)OC4C)n1)C(N)=O (centres undefined)	inactive: -0.644	inactive: 1.97	inactive: 4.14
CCc1cc2c(cc1CC)CC(NC[C@H](O)c1ccc(O)c3[nH]c(=O)ccc13)C2 [indacaterol maleate]	inactive: 0.739	inactive: 0.246	inactive: 4.03
Cn1c(Cc2ccc(Br)c(Oc3cc(Cl)cc(C#N)c3)c2F)n[nH]c1=O	inactive: -1.01	inactive: -1.09	inactive: -1.01
O=C(Cc1ccccc1)c1cc(O)c(O)c([N+](=O)[O-])c1	inactive: -0.443	inactive: 0.542	inactive: 0.953
N=c1nc(N2CCCCC2)cc(N)n1O [minoxidil]	–	inactive: 4.2	–
N=c1nc(N2CCCCC2)cc(N)n1O [Minoxidil]	inactive: -0.692	inactive: -0.208	inactive: 0.381
CN1CCN(C2Cc3cc(Cl)ccc3Sc3ccccc32)CC1 (centres undefined)	inactive: 1.27	inactive: -0.879	inactive: 1.78
CCC(C)C(N)C1=NC(C(=O)N[C@@H](CC(C)C)C(=O)N[C@H](CCC(=O)O)C(=O)N[C@H](C(=O)N[C@H]2CCCCNC(=O)[C@@H](CC(N)=O)NC(=O)[C@@H](CC(=O)O)NC(=O)[C@@H](Cc3cnc[nH]3)NC(=O)[C@@H](Cc3ccccc3)NC(=O)[C@@H]([C@@H](C)CC)NC(=O)[C@@H](CCCN)NC2=O)[C@@H](C)CC)CS1 (some centres undefined)	inactive: 1.6	inactive: -1.77	inactive: 2.11
